According to doi:10.1101/2023.01.17.524371:
Results are given in words; binding and its absence hold for the method and conditions named. In cells and extracts the contact can be indirect. Some results given as binding are weak or reduced against the parent protein; the word gives no strength.

By UniProt entry, the sequences of proteins in these tests, tags left out.
UniProt Q13263: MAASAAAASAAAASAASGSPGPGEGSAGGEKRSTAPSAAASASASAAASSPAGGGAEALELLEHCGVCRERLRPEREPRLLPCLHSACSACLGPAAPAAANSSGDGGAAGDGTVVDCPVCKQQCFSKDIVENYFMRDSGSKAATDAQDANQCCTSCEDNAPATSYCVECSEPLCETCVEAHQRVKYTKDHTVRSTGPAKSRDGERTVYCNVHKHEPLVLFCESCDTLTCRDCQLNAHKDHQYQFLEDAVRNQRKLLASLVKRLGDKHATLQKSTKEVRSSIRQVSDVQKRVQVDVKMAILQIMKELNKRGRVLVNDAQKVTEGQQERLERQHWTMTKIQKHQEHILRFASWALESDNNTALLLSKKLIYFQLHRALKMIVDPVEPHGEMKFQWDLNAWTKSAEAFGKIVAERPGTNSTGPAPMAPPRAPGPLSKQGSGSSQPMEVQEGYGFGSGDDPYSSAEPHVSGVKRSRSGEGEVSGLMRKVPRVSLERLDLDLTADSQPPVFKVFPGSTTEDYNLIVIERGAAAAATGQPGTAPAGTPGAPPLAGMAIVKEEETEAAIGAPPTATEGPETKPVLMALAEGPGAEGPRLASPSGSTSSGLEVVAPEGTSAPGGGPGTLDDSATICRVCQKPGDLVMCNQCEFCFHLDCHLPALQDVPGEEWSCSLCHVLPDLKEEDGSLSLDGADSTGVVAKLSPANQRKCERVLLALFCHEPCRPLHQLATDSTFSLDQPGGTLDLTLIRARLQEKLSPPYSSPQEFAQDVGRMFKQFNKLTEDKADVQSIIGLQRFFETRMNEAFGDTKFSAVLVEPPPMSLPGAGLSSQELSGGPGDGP
UniProt Q13547: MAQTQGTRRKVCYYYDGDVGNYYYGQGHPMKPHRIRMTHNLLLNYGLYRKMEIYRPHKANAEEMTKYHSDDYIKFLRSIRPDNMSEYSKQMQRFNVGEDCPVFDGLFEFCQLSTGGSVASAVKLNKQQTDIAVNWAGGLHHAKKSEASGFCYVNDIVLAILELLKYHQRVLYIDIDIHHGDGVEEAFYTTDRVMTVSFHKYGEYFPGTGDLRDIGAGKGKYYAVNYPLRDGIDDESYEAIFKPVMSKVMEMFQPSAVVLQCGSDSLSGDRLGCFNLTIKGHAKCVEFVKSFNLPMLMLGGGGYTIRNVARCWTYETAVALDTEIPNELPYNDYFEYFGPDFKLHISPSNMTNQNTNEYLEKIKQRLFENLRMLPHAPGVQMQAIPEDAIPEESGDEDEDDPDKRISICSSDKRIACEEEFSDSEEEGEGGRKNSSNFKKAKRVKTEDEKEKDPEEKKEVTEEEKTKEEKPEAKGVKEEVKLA

Target: TRIM28 (human (endogenous in HCT-15)) (UniProt Q13263)
Assay: co-IP

HDAC1 (from UniProt Q13547 1-482) was tested, and the binding was “binds”.
